# Experimental data as given in publication PMC10342086.
# Protein sequences, listed by entry. Tags and fused reporters are not part of them. Lines headed by an entry give the natural chain unless they say otherwise; changes in a name come on top.
# UniProt A0MNQ6: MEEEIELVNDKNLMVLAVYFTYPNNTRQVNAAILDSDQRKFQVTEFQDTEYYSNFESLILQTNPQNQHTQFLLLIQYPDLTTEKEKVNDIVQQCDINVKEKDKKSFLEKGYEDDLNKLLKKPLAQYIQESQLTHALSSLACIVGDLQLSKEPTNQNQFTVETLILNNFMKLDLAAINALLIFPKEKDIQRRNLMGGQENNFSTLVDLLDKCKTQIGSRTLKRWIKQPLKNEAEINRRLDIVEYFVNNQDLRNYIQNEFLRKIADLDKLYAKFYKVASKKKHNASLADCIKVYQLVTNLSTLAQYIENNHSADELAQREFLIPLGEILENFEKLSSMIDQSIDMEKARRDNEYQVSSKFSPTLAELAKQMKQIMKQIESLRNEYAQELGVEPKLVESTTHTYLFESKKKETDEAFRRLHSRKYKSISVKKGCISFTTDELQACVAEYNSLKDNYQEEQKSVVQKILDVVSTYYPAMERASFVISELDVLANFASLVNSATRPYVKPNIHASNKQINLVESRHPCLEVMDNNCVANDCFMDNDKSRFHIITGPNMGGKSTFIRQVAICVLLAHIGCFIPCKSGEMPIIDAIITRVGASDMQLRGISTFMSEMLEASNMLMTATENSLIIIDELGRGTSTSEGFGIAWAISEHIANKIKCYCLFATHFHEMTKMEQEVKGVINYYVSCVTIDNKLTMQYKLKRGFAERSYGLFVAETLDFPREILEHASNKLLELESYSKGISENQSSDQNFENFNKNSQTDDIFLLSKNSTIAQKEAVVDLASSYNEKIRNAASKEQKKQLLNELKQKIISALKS
# UniProt I7MGE9: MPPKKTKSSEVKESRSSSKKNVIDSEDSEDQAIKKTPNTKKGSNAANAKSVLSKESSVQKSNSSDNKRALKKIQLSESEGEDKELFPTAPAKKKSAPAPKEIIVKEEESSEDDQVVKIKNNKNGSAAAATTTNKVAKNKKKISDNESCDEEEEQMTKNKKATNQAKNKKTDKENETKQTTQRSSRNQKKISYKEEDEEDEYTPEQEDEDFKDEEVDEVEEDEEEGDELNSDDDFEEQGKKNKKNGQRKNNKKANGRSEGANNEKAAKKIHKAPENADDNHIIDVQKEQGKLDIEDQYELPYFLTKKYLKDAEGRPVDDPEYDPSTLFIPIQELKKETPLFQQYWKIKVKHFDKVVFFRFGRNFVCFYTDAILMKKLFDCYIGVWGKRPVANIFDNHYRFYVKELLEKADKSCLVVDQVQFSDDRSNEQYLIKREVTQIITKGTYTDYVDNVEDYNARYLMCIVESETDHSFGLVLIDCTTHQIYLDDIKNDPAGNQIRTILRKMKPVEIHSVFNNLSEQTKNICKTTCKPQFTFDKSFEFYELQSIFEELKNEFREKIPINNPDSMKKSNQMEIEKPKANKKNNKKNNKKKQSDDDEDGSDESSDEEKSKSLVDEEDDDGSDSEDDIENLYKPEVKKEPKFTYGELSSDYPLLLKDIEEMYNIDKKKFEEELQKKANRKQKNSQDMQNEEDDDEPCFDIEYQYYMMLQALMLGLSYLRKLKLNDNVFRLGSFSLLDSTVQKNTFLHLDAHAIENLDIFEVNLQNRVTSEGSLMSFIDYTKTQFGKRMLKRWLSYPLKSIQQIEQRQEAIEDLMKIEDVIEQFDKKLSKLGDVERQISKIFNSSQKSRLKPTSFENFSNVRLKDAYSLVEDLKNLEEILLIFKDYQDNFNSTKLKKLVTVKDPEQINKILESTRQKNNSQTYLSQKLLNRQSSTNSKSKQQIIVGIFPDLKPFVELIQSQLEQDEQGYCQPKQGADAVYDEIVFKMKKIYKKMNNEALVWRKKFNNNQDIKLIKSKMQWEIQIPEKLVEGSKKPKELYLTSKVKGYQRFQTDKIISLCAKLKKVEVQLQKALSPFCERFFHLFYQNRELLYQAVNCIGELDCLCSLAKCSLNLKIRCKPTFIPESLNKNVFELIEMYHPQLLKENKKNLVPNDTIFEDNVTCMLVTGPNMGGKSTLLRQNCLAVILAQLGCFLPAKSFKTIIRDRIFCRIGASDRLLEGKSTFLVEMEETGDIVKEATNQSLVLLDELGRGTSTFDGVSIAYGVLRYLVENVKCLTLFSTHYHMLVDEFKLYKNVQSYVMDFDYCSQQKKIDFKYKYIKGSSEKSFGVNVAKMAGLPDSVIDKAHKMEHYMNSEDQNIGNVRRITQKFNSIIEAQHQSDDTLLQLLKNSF
# UniProt I7M403: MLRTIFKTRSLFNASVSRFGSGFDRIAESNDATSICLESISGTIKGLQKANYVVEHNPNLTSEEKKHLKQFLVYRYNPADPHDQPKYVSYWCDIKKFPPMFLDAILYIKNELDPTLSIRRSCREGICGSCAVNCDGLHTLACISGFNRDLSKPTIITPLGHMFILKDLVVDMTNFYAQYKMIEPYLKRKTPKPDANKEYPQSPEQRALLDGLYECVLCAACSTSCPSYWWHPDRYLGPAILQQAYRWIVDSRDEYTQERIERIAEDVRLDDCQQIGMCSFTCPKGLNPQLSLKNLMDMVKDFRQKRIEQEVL
# UniProt Q23MC5: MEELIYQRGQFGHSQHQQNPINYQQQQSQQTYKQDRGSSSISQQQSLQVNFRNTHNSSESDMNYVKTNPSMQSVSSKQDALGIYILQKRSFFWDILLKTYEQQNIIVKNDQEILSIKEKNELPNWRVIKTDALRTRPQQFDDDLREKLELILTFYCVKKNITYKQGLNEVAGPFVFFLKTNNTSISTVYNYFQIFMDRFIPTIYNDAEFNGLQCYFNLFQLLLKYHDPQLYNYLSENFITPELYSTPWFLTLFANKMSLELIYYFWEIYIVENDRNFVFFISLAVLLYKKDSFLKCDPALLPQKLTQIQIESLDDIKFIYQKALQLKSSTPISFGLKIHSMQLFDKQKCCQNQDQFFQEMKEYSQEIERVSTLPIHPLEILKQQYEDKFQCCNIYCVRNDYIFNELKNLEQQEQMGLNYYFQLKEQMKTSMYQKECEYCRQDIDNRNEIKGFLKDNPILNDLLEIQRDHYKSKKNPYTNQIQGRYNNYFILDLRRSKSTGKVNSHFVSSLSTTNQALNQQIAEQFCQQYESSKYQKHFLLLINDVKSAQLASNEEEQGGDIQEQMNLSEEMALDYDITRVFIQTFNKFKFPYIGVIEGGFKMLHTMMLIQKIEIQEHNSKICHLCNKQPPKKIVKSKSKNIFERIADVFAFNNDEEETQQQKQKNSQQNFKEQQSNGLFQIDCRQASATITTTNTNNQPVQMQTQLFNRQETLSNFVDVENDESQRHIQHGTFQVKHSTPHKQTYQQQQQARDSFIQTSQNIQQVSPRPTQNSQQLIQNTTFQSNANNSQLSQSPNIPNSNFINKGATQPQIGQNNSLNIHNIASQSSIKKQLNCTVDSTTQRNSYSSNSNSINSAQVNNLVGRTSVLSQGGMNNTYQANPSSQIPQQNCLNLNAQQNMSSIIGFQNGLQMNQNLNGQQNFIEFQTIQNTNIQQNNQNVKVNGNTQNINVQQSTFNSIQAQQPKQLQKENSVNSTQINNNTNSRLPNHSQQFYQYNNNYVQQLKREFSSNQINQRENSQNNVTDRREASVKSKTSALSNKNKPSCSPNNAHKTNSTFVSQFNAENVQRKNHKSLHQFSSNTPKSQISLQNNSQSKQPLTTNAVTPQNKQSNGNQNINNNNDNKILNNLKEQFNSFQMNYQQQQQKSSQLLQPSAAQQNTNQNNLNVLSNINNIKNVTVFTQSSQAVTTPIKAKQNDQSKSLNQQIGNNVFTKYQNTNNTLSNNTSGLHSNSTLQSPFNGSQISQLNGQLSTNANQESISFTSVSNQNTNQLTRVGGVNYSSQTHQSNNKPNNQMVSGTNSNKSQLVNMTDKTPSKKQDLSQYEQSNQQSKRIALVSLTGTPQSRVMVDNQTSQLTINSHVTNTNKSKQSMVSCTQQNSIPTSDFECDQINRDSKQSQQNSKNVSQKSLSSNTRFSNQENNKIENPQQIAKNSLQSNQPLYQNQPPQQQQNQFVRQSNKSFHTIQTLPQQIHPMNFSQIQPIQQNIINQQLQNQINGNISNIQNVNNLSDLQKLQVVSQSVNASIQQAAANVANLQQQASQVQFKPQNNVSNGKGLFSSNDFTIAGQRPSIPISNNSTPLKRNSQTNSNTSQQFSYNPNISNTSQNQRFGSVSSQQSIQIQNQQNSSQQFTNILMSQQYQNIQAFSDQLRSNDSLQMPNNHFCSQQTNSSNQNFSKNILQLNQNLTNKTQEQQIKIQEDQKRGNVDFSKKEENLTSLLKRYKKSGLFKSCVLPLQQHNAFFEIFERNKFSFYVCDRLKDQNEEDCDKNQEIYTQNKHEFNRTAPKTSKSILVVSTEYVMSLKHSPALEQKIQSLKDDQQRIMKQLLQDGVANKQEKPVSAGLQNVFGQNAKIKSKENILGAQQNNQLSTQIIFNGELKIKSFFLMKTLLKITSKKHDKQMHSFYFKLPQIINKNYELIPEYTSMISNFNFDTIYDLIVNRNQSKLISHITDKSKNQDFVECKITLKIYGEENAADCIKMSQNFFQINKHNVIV
# UniProt Q23R52: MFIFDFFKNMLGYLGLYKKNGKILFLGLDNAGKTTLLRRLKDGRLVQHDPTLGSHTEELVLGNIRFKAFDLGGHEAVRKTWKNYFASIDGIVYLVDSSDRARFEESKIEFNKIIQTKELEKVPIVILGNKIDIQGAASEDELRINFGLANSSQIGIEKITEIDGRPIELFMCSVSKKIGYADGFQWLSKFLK
# UniProt I7M9I3: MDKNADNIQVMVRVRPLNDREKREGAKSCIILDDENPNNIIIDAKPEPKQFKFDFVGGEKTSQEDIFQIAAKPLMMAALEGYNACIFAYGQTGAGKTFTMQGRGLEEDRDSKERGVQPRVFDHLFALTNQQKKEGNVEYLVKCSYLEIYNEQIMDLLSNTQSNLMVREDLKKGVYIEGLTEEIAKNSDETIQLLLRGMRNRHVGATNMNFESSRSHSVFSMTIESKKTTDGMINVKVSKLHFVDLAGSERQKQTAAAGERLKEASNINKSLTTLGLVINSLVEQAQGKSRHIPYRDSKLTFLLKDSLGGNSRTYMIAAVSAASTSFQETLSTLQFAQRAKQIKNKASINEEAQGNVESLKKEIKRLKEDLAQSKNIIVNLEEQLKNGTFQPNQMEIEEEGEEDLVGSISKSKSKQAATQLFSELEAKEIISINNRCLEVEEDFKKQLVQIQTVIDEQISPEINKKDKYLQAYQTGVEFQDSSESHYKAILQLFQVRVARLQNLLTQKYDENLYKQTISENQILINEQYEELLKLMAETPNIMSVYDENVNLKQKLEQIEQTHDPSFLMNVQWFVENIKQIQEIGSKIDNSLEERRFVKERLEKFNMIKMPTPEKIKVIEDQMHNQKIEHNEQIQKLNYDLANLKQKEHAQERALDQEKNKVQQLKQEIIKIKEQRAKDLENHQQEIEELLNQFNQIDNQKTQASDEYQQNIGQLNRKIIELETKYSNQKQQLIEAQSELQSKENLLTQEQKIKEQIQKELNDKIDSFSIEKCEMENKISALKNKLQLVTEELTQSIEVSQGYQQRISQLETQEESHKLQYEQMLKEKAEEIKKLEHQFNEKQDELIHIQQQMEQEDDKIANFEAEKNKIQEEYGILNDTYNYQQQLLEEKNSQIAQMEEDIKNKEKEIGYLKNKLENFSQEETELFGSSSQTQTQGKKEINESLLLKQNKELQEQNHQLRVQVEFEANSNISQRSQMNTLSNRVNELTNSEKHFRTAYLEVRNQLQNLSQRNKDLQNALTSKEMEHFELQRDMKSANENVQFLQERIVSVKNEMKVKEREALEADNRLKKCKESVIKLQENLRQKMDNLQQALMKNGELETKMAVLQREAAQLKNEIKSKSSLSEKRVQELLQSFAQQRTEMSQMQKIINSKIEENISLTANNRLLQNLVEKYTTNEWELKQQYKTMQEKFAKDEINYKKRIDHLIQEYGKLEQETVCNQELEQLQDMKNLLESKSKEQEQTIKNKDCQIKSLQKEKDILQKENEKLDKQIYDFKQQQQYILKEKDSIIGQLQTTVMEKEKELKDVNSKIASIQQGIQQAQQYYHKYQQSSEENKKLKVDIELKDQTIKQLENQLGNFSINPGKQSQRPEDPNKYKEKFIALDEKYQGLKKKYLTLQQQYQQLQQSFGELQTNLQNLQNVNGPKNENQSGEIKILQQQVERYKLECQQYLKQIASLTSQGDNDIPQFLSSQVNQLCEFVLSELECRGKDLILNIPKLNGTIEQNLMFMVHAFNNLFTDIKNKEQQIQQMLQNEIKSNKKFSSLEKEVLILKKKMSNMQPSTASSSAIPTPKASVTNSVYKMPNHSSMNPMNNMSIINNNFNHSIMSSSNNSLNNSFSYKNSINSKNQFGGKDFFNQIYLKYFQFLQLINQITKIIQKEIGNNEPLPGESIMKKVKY
# Target: Msh2-3HA (Tetrahymena thermophila) (UniProt A0MNQ6)
# Assay: affinity purification with mass spectrometry; Msh2-3HA captured with HA antibody (Pierce HA-tag magnetic IP/Co-IP kit) from 3.5 x 10^7 cells at 3 h of conjugation; trypsin digest, LC-MS/MS, MaxQuant; wild-type lysate without HA tag as blank control; hits: iBAQ WT/iBAQ Msh2-3HA <= 0.05
row,binding,Substance
1,binds,Dynein Heavy chain Dyh3 (TTHERM_01276420) (from UniProt Q22A67 1-4620)
2,binds,Dynein Heavy chain Dyh17 (TTHERM_00850620) (from UniProt Q23R22)
3,binds,Msh6L3 (TTHERM_00150000) (from UniProt I7MGE9)
4,binds,TTHERM_00151470 (from UniProt I7MGG8)
5,binds,TTHERM_00241700 (from UniProt I7M403)
6,binds,TTHERM_00621340 (from UniProt Q23MC5)
7,binds,TTHERM_00622710 (from UniProt Q241B3)
8,binds,TTHERM_00723640 (from UniProt I7MFS4)
9,binds,TTHERM_00849320 (from UniProt Q23R52)
10,binds,TTHERM_00969600 (from UniProt Q24DL4)
11,binds,TTHERM_01015890 (from UniProt Q22CV2)
12,binds,kinesin motor catalytic domain protein (TTHERM_00564530) (from UniProt I7M9I3)

# These are yes or no findings as the source states them, for the method shown. In cells and extracts the contact can be indirect. Here binding means that the protein was enriched with, or labelled near, the bait; the list need not be complete.
